Assay results published in the supplement of paper PMC12819154, “High-throughput peptide-centric local stability assay extends protein–ligand identification to membrane proteins, tissues and bacteria” (Nature Structural & Molecular Biology, 2025).
Some of the results follow. Most entries show no effect beyond the scatter of the controls.

Sequences of proteins named here, by UniProt entry; tags and fusion partners are left off. A change or cut given only in a name is not applied to a line headed by its entry.
UniProt Q99P88: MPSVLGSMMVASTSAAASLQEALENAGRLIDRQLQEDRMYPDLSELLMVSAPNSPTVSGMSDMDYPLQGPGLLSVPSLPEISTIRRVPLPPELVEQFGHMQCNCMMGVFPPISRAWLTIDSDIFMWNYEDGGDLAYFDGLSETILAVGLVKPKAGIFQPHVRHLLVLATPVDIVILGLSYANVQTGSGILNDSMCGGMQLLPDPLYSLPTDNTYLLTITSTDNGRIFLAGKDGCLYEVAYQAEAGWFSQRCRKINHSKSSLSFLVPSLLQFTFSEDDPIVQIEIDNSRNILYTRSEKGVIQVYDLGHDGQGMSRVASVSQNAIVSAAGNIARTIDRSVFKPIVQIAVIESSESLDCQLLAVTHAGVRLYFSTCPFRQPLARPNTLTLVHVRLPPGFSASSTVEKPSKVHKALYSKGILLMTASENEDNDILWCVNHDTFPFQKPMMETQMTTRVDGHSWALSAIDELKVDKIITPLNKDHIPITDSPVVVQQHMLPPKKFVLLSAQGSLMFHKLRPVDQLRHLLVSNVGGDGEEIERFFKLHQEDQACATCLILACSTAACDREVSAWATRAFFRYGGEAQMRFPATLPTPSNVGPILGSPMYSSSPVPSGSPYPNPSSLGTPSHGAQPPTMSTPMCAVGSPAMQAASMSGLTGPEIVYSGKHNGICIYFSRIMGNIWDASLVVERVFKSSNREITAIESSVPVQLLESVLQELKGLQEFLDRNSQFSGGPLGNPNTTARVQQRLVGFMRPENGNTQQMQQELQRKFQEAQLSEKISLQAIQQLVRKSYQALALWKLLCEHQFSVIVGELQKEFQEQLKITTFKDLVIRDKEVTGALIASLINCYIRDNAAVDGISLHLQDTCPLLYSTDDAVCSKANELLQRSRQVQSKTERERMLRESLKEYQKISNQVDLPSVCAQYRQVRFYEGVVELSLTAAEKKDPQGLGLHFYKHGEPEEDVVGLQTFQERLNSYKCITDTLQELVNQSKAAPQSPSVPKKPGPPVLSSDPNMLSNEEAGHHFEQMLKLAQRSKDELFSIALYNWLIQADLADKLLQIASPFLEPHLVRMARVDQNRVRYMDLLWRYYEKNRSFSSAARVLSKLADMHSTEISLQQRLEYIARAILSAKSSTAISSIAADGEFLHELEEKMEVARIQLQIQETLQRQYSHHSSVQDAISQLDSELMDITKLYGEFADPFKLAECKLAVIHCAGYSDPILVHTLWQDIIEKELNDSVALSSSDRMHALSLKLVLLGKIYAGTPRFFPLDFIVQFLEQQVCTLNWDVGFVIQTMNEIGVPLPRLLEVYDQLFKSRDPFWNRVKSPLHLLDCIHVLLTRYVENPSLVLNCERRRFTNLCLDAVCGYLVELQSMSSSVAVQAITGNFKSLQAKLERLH
UniProt Q9CQM5: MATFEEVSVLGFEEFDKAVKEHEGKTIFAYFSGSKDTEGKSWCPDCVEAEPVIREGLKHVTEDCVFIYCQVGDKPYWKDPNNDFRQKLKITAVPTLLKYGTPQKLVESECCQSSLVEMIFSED
UniProt Q9CQ22, whole entry: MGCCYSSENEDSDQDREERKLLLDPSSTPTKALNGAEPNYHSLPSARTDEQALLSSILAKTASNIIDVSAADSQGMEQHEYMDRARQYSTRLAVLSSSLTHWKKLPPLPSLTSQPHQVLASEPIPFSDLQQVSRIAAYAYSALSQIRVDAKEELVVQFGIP
UniProt Q99MS7: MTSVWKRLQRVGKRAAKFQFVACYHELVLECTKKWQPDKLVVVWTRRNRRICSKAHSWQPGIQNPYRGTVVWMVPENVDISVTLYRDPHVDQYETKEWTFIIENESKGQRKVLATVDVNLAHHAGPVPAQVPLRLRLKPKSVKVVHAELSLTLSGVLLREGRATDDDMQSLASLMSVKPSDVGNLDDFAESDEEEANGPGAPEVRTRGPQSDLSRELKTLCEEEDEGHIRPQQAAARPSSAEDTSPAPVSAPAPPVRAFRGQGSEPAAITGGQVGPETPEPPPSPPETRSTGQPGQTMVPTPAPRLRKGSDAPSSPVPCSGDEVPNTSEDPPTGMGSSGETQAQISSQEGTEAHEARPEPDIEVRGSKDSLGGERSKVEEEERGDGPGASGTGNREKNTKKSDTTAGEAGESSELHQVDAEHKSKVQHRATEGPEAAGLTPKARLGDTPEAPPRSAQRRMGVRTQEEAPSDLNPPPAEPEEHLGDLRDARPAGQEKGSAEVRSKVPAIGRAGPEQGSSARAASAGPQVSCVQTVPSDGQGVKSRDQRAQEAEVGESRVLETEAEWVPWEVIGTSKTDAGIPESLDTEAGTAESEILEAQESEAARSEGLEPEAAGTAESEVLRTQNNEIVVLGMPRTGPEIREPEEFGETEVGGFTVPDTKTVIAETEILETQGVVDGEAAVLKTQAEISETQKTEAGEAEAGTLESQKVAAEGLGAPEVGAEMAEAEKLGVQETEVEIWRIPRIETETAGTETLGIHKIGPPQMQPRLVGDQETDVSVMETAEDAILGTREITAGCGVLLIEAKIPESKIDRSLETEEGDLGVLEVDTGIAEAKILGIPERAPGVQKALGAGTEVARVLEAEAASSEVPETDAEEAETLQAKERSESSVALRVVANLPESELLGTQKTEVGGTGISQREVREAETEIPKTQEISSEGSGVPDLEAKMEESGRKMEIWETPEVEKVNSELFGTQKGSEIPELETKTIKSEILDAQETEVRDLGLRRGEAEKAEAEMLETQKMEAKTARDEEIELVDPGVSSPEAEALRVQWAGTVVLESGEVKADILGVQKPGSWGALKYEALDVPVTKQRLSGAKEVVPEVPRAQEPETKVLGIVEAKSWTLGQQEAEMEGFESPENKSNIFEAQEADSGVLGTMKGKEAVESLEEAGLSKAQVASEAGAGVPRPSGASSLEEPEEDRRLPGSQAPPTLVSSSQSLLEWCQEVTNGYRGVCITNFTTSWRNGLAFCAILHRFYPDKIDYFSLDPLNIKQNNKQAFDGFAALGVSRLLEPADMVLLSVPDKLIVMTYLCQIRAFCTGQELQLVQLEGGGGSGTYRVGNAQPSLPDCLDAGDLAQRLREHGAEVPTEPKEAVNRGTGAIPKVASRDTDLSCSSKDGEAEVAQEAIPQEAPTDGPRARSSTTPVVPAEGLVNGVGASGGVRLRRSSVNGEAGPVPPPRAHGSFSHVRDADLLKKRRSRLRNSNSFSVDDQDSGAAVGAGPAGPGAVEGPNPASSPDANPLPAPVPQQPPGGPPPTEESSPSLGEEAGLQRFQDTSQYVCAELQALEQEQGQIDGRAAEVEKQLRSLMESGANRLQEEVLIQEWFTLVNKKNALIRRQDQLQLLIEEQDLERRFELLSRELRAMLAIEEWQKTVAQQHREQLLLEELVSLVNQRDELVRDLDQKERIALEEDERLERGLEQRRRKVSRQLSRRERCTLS
UniProt Q9CQF4: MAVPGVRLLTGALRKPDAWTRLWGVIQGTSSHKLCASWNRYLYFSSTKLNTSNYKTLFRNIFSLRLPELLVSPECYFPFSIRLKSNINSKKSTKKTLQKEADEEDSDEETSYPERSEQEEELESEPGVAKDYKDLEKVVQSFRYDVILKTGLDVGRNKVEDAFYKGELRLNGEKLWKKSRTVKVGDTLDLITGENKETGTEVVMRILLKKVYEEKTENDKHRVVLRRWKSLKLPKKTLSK

Each target was assayed with CN[C@@H]1C[C@H]2O[C@@](C)([C@@H]1OC)n1c3ccccc3c3c4c(c5c6ccccc6n2c5c31)C(=O)NC4 [staurosporine] (assay: log2 fold change of tryptic peptide abundance, ligand vs vehicle (limited proteolysis) (log2 ratio); higher = more trypsin-susceptible (destabilized)). Details: ligand concentration: 20 uM; sample: mouse liver crude lysate; replicate design: treated separately.

Row | Target | log2 fold change
1 | UniProt Q99P88 (peptide sequence: LLQIASPFLEPHLVR, peptide start residue: 1052) | 0.492
2 | UniProt Q9CQM5 (peptide sequence: LKITAVPTLLK, peptide start residue: 88) | 0.469
3 | UniProt Q9CQ22 (peptide sequence: ALNGAEPNYHSLPSAR, peptide start residue: 32) | -0.0979
4 | UniProt Q99MS7 (peptide sequence: ILGIPERAPGVQK, peptide start residue: 836) | 0.448
5 | UniProt Q9CQF4 (peptide sequence: NKVEDAFYK, peptide start residue: 157) | 0.195
